Screen size: about 300,000 compounds; about 5,400 (1.8%) were called active. Inconclusive results, whose numbers are uncertain, are shown with a selection of clear calls. Calls come from the whole dose curve; tested in HEK293 cells. Potencies of inconclusive entries are doubtful fits and often do not repeat.
Assay: qHTS for inhibitors of binding or entry into cells for Marburg Virus
Details: Marburg virus pseudotyped entry inhibition, cell reporter; activity change, negative = inhibition: at 37.8 µM (top of the series) unless noted
% is set by controls: 0 for no effect and ±100 for the full control effect; potency is the fitted concentration of half-maximal effect.

SMILES	Potency	activity change, negative = inhibition
CCCn1c(O)c(N=Nc2ccc3ccccc3n2)c2ccccc21	inconclusive: 11.2 µM [activator, partial curve, poor fit]	–
N#Cc1c(-c2ccccc2)cc(C2CC2)nc1SCC(=O)O	inconclusive: 5.62 µM [activator, single point]	–
c1ccc(C2Nc3ccccc3-c3nc4ccccc4n32)nc1 (stereo unspecified)	inconclusive: 15.8 µM [inhibitor, single point]	–
COC(=O)Cc1ccc(NC(=S)NCCSc2ccc(Cl)cc2)cc1	inconclusive: 35.5 µM [inhibitor, single point]	–
N#Cc1ccc(CSc2nnc(-c3cccc(S(=O)(=O)N4CCCCC4)c3)o2)cc1	inconclusive: 17.8 µM [inhibitor, single point]	–
CCc1nc(N2CCN(C(=O)c3ccccc3)CC2)c2c3c(sc2n1)CCCC3	inconclusive: 39.8 µM [inhibitor, partial curve, poor fit]	–
CCSc1nnc(NC(=O)CSc2nnc(CNC(=O)c3ccc(OC)c(OC)c3)o2)s1	inconclusive: 3.16 µM [activator, single point]	–
CC[N+]1(CC(O)COC2CC(C)CC(C)(C)C2)CCOCC1 (stereo unspecified)	inconclusive: 3.16 µM [activator, single point]	–
N[C@H](Cn1ccc(=O)[nH]c1=O)C(=O)O	–	inactive: 3.01%
O=C(Cc1coc(-c2ccc(F)cc2)n1)N1CCOCC1	inconclusive: 1.26 µM [inhibitor, single point]	–
CCOC(=O)C1(Cc2ccccc2C)CCCN(Cc2ccc(NC(C)=O)cc2)C1 (stereo unspecified)	inconclusive: 20 µM [inhibitor, partial curve, poor fit]	–
Cc1cccc(NC(=O)CSCC(=O)Nc2ccccc2N2CCCC2)c1	inconclusive: 0.794 µM [activator, partial curve, poor fit]	–
CCOC(=O)c1c(C)c(-c2ccccc2)n(CC(=O)Nc2cc(C)ccc2OC)c1C	–	inactive: 11.6% [at 46.1 µM]
COc1cc(/C=N/NC(=O)COc2ccccc2[N+](=O)[O-])ccc1OC(=O)c1ccco1	inconclusive: 9.2 µM [activator, partial curve]	–
COc1cc(CCC(C)=O)ccc1OC(=O)c1c(F)cccc1Cl	inconclusive: 35.5 µM [inhibitor, single point]	–
O=C(N/N=C/c1cccc([N+](=O)[O-])c1)c1cc(-c2ccc3c(c2)OCO3)n[nH]1	inconclusive: 11.2 µM [inhibitor, partial curve, poor fit]	–
COCCCNC(=S)NCCNc1nc2c(C)c(C)ccc2cc1C#N	inconclusive: 6.31 µM [activator, single point]	–
COC(=O)CC1C(=O)NCCN1Cc1cn(-c2ccc(C)cc2)nc1-c1cccc(C)c1 (stereo unspecified)	–	inactive: 0.009% [at 46.1 µM]
CN(C)c1ccc2c(c1)N=C(c1ccco1)OP2(=S)N1CCOCC1 (stereo unspecified)	–	inactive: 1.91%
Cc1c(C(=O)NCc2ccccc2CN2CCCC2)oc2ccccc12	inconclusive: 10 µM [inhibitor, partial curve, poor fit]	–
O=C(NCCc1cn2ccccc2n1)c1ccccc1F	–	inactive: 11.9%
COc1cc(CNCc2c[nH]c3ccccc23)cc(OC)c1	inconclusive: 35.5 µM [inhibitor, single point]	–

SMILES	Potency	activity change, negative = inhibition
CCC1CO/C(=C(\C(Cl)=C(Cl)Cl)[N+](=O)[O-])N1 (stereo unspecified)	–	inactive: -13.8% [at 46.1 µM]
CCOc1ccc(N(CC(=O)NCC2CCCO2)S(=O)(=O)c2ccc(C)cc2)cc1 (stereo unspecified)	inconclusive: 6.31 µM [inhibitor, single point]	–
O=C1c2cccc(OCC(=O)N3CCCc4ccccc43)c2CCN1Cc1ccccc1	inconclusive: 35.5 µM [activator, partial curve, poor fit]	–
C=CCN(C(=O)CSc1nc2c(sc3ccccc32)c(=O)n1CCN(CC)CC)c1ccccc1	inconclusive: 35.5 µM [inhibitor, single point]	–
Cc1ccc2nc(SCC(=O)Nc3ccc(F)cc3F)nc(=O)n2c1	inconclusive: 0.316 µM [activator, partial curve, poor fit]	–
CCOC(=O)c1cc(-c2ccccc2)n(CCC(=O)N2CCN(c3ccccc3OC)CC2)c1C	inconclusive: 23.1 µM [inhibitor, partial curve, poor fit]	–
CCN1CCC[C@H]1CNC(=O)c1cc(S(N)(=O)=O)ccc1OC	–	inconclusive: -30.2% [inhibitor]
COc1ccc(N2CCCn3c2nc2c3c(=O)n(Cc3ccc(C)cc3)c(=O)n2C)c(OC)c1	inconclusive: 11.2 µM [inhibitor, single point]	–
CC(=O)Nc1cccc(NC(=O)CSc2nc(=O)n(CCN3CCOCC3)c3c2CCC3)c1	inconclusive: 3.16 µM [activator, single point]	–
O=C(Nc1ccccc1)OCc1cncs1	inconclusive: 2.82 µM [activator, partial curve, poor fit]	–
CCCOc1ccc(N2C(=O)CC(N(Cc3ccccc3)N=O)C2=O)cc1 (stereo unspecified)	inconclusive: 12.6 µM [activator, single point]	–
OC(Cc1cccnc1)(Cc1cccnc1)c1cc2ccccc2[nH]1	inconclusive: 6.51 µM [inhibitor, partial curve, poor fit]	–
Cc1ccc(N2C(=O)NC(=O)/C(=C\c3cc(C)n(-c4sc5c(c4C#N)CCCC5)c3C)C2=O)cc1	active: 2.51 µM	–
COc1ccc2nc(C)cc(SCC(=O)N/N=C/c3ccco3)c2c1	active: 8.91 µM	–
CCOC(=O)C1(Cc2ccc(Cl)cc2)CCN(C(C)CCn2cccn2)CC1 (stereo unspecified)	inconclusive: 10 µM [inhibitor, partial curve, poor fit]	–
CCOc1cc(Br)ccc1S(=O)(=O)N1CC(C)OC(C)C1 (stereo unspecified)	inconclusive: 23.1 µM [inhibitor, single point]	–
Cc1ccc(C)c(NC(=S)N2CCCC2)c1	–	inactive: 15.7% [at 46.1 µM]
CCCNC(=O)N1CCCC(C(N)=O)C1 (stereo unspecified)	inconclusive: 35.5 µM [inhibitor, single point]	–
Cn1c(SCC(=O)Nc2nccs2)nnc1-c1ccncc1	–	inactive: 23.5% [at 46.1 µM]
C=CCn1c(SCCN)nnc1-c1cccc(S(=O)(=O)N2CCOCC2)c1	inconclusive: 0.282 µM [inhibitor, full curve, poor fit]	–
Cc1ccc(NC(=O)c2cc(-c3ccc(Br)s3)nc3ccccc23)cc1F	–	inactive: -10.9% [at 46.1 µM]
O=C(COc1ccc(OCc2ccccc2)cc1)NN=C1CCCC1	–	inactive: -12.4% [at 14.2 µM]

SMILES	Potency	activity change, negative = inhibition
CCC(C)NS(=O)(=O)c1ccc(NC(=O)C(Sc2ccccc2)c2ccccc2)cc1 (stereo unspecified)	inconclusive: 22.4 µM [inhibitor, single point]	–
COC(=O)c1ccc2c(=O)[nH]c(COC(=O)CCC(=O)c3ccc(Cl)cc3)nc2c1	–	inactive: 12.8% [at 46.1 µM]
Cc1cccc(NC(=S)N(CCN(C)C)Cc2cc3cc(C)ccc3[nH]c2=O)c1	inconclusive: 28.2 µM [inhibitor, single point]	–
Nc1nc(SCC(=O)Nc2ccccc2Oc2ccccc2)n[nH]1	inconclusive: 2.24 µM [inhibitor, partial curve]	–
CC(C)N(Cc1ccccc1)C(=O)CN1c2cccc3cccc(c23)S1(=O)=O	inconclusive: 0.447 µM [inhibitor, full curve, poor fit]	–
Cc1ccc(S(=O)(=O)N2CCN(CCc3ccccc3)CC2)c(C)c1	inconclusive: 35.5 µM [inhibitor, single point]	–
CC(c1ccco1)N(C(=O)COc1ccccc1[N+](=O)[O-])c1ccccn1 (stereo unspecified)	inconclusive: 0.891 µM [activator, single point]	–
COCCN(C(=O)c1ccc(OCC(C)C)cc1)c1c(N)n(Cc2ccccc2)c(=O)[nH]c1=O	–	inactive: -7.72% [at 46.1 µM]
CN(CC(=O)Nc1ccccc1C(F)(F)F)C(=O)c1ccc(N2C(=O)CCC2=O)cc1	–	inactive: 0.415% [at 46.1 µM]
COc1ccc(-n2c(Cc3cccs3)nnc2SCC(=O)Nc2ccc3c(c2)OCCO3)cc1	inconclusive: 8.2 µM [inhibitor, partial curve, poor fit]	–
COc1ccc(CCN2C(=O)C3C4CC(C5C(C(=O)NN)=NOC45)C3C2=O)cc1OC (stereo unspecified)	inconclusive: 35.5 µM [inhibitor, single point]	–
COc1ccccc1N1CCN(S(=O)(=O)c2c(C)sc3ncn(CC(=O)N(C)c4ccc(Cl)cc4)c(=O)c23)CC1	inconclusive: 8.91 µM [inhibitor, partial curve, poor fit]	–
CC(C)N1CCC(N2CCN(Cc3ccc(-c4ccc(Cl)cc4)o3)CC2CCO)CC1 (stereo unspecified)	active: 3.16 µM	–
CCOC(=O)c1cnn(-c2nc(-c3ccc(C)cc3)cs2)c1C(F)(F)F	inconclusive: 10.3 µM [inhibitor, partial curve, poor fit]	–
CC1=NN(c2ccccc2)C(=O)/C1=C\c1cc(C)n(-c2ccccc2)c1C	–	inactive: 19%
CCOc1cccc(/C=N/NC(=O)C2CCCC2)c1O	inconclusive: 35.5 µM [inhibitor, single point]	–
CCOc1cc(/C=N/NC(N)=S)cc(Br)c1OCc1ccccc1C	inconclusive: 9.2 µM [inhibitor, partial curve, poor fit]	–
COC(=O)c1ccc(Oc2c(C)oc3cc(OCc4cnn(-c5ccccc5)c4)ccc3c2=O)cc1	–	inactive: -11.9%
CN1CC(C(=O)c2ccc(Cl)cc2)C(c2ccc(Cl)cc2Cl)C1 (stereo unspecified)	inconclusive: 35.5 µM [inhibitor, single point]	–
O=C(CN1CCCCCC1)Nc1ccc(Br)cc1	–	inactive: -20.9%
CSCC(NS(=O)(=O)c1ccc(C)cc1)C(=O)O (stereo unspecified)	inconclusive: 35.5 µM [inhibitor, single point]	–
CCc1ccc2nc(NC(=O)c3ccc(N4C(=O)CCC4=O)cc3)sc2c1	–	inactive: 9% [at 46.1 µM]

6 successive records already listed, quoted:
SMILES	Potency	activity change, negative = inhibition
CCC(C)NS(=O)(=O)c1ccc(NC(=O)C(Sc2ccccc2)c2ccccc2)cc1 (stereo unspecified)	inconclusive: 22.4 µM [inhibitor, single point]	–
COC(=O)c1ccc2c(=O)[nH]c(COC(=O)CCC(=O)c3ccc(Cl)cc3)nc2c1	–	inactive: 12.8% [at 46.1 µM]
Cc1cccc(NC(=S)N(CCN(C)C)Cc2cc3cc(C)ccc3[nH]c2=O)c1	inconclusive: 28.2 µM [inhibitor, single point]	–
Nc1nc(SCC(=O)Nc2ccccc2Oc2ccccc2)n[nH]1	inconclusive: 2.24 µM [inhibitor, partial curve]	–
CC(C)N(Cc1ccccc1)C(=O)CN1c2cccc3cccc(c23)S1(=O)=O	inconclusive: 0.447 µM [inhibitor, full curve, poor fit]	–
Cc1ccc(S(=O)(=O)N2CCN(CCc3ccccc3)CC2)c(C)c1	inconclusive: 35.5 µM [inhibitor, single point]	–

— PubChem BioAssay AID540276 (National Center for Advancing Translational Sciences (NCATS), 2011)
